In publication PMC6818788:
Results are given in words; binding and its absence hold for the method and conditions named. In cells and extracts the contact can be indirect. Some entries that bind do so weakly or less than the wild type. Tags and fused reporters may be left off the sequences shown.

The chains behind the UniProt entries cited, without tags or fusion partners.
UniProt Q16666: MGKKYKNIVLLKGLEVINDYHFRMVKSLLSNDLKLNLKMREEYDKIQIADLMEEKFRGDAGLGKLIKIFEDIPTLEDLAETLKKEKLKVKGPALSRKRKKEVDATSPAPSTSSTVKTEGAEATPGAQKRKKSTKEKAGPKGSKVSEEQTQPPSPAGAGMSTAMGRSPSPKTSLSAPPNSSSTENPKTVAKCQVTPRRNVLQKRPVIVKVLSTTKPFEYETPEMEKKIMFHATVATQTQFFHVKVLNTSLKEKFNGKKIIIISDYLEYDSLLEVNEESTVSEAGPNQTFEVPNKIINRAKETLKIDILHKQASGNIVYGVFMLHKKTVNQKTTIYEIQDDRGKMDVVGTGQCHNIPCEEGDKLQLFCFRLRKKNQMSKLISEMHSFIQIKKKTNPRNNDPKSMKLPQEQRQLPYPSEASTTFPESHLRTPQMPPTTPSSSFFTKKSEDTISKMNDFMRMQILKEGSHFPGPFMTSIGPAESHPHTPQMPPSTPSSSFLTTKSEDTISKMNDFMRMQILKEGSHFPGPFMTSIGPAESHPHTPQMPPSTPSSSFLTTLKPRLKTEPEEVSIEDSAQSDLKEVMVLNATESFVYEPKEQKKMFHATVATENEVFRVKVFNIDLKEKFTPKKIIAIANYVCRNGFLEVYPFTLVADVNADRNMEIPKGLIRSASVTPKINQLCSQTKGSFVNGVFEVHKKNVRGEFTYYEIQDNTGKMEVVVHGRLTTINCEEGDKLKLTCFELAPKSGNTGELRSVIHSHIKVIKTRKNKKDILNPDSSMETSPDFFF

Biological target: T1, Flag-IRF7 (mouse) (UniProt P70434)
T1 sequence: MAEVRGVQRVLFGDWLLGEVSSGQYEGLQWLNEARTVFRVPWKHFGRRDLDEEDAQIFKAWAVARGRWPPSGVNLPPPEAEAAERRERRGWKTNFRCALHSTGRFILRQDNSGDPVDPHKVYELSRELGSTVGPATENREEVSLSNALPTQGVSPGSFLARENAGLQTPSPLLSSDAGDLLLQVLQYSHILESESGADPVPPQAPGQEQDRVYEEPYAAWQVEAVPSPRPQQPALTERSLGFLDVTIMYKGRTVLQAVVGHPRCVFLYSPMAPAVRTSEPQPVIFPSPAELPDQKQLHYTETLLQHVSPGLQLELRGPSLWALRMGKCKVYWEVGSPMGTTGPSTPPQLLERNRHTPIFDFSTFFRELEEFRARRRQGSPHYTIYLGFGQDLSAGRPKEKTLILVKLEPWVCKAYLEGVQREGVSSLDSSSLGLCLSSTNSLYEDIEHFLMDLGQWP
Experiment: co-IP; HEK293T cells co-transfected with Flag-IRF7 and HA-tagged p200 family protein or mutant; lysate immunoprecipitated with anti-Flag, immunoblot with anti-HA

binding: binds
Substance: HA-IFI16 (from UniProt Q16666 1-785)
